The values that follow come from PMC10653931.

No constants are given. Whether binding was seen depends on the method and setting. In cells and extracts the contact can be indirect. A result given as binding can be weak or reduced; the word gives no strength.

The assay has as its target endogenous AMPK (mouse liver) (mouse (endogenous in liver)). Nature of the assay: co-IP; endogenous proteins; mouse liver homogenates in lysis buffer, immunoprecipitated by anti-AMPK antibody, immunoblot with anti-TDRD7 antibody.

B1: endogenous TDRD7 (mouse liver) (protein, UniProt Q8K1H1 1-1086)
chain: MLEADLVSKMLRAVLQSHKNGIVLPRLQGEYRSLTGDWIPFKQLGYPTLEAYLRSVPAVVRIEASRSGEIVCYAVACTETARIAQLVARQRTSKRKIGRQINCQMRVKKAMPFFLEGKPKATLRQPGFASDYSISRKPNSALLRDRGSALGVKADVDMPPYPDTPVQRHASMSANSRFSPKSSLPASFQTHISRACPTEVNDNLNQTVEKPNITPPASYTNKMDEVQNRIKEILDKHNNGIWISKLPHFYKEFYKEDLNQGVLQQFEHWPHICTVEKPCGGGQDSLLYPARREQPLKSDQDPEKELPPPPPAPKQEVPSQGSPAVMPDVKEKVAELLGKYSSGLWASALPKAFEDMYKVKFPEDALKNLASLSDVCTINYISGNTQKAILYAKLPLPTDKILKDEGQAQGDFDIKSMIEQEYLQIEKNMAESADEFLEDITVPPLVIPTEASPSVLVVELSNTNDVVIRYVGKDYSAAQELMEDEMKEFYSKNPRVTPIQTVHVGQLLAVNAEEDAWLRAQIISTDENKIKVCYVDYGFCENIEKSKAYRLNPRFCSLSFQATKCKLAGLEVLNDDPDLVKAVESLTCGKIFAVEILDKSDVPLVVLYDTSGEDDININATCLKAICDRSLQVHLQVDAMYTNVKVTNICSDGTLYCQVPCKGLNKLNDLLHKTEDYFHCKHMTSEYFISLPFCGKICLFHCKGKWLRVEITNVHSSRALDVQFLDSGNSTSVKVSELREIPPRFLQEMLAIPPQAIKCCLADLPQSIGMWTPDAVLWLRDSVLNCSDCSIKVTKMDETKGVAYVYLFTPNNFPDPHRSINRQITNADLWKHQKDVFLSAVSTAASSPGNRNGGTPAPGSPAESLRKSHPEVIKKSVLDHTSSFSLEELPPPVHLSRSGEHMDVYVPVACHPGHFVIQPWQEIHKLEVLMEEMILYYSVSEERHIAVERDQVYAAKVENKWYRVLLKGILTNGLVSVYELDYGKHELVNIRKVQPLVDVFRKLPFQAVTAQLAGVKCSQWSEEASMVFRNHVEKKALVALVQTVVEHTNPWDRKVVLYLVDTSLPDTDTWIHDFMSQYLLELSKVN
In the case of B1, the binding entry was “binds”.
